Consider 2 substances from paper doi:10.1101/2025.08.04.668477.

The chains behind the UniProt entries cited, without tags or fusion partners. Where a name states a change or a piece, a line headed by the entry shows the natural chain unless it says otherwise. A line that says so, or that is headed by a name, gives the form on record, which may keep a tag or linker.
androgen receptor splice variant 7 (endogenous) (human (endogenous in 22Rv1)) (P10275, form named): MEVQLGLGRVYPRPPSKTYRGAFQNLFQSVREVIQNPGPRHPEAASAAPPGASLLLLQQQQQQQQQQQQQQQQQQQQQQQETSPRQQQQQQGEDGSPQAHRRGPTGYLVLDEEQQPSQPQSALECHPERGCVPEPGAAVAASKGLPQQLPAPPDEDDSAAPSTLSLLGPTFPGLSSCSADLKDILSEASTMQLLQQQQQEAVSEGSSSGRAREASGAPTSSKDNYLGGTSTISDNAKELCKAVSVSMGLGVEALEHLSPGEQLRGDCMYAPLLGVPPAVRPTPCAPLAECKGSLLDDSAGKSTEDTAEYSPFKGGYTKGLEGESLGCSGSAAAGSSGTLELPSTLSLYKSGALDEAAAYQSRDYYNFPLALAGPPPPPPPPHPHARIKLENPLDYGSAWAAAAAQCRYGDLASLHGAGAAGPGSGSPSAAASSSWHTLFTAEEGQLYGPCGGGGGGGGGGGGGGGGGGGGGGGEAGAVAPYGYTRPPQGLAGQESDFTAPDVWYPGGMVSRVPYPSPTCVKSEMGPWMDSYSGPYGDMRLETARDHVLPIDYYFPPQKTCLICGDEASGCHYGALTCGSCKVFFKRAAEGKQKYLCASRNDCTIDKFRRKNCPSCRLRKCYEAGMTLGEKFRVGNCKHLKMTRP
UniProt Q09472: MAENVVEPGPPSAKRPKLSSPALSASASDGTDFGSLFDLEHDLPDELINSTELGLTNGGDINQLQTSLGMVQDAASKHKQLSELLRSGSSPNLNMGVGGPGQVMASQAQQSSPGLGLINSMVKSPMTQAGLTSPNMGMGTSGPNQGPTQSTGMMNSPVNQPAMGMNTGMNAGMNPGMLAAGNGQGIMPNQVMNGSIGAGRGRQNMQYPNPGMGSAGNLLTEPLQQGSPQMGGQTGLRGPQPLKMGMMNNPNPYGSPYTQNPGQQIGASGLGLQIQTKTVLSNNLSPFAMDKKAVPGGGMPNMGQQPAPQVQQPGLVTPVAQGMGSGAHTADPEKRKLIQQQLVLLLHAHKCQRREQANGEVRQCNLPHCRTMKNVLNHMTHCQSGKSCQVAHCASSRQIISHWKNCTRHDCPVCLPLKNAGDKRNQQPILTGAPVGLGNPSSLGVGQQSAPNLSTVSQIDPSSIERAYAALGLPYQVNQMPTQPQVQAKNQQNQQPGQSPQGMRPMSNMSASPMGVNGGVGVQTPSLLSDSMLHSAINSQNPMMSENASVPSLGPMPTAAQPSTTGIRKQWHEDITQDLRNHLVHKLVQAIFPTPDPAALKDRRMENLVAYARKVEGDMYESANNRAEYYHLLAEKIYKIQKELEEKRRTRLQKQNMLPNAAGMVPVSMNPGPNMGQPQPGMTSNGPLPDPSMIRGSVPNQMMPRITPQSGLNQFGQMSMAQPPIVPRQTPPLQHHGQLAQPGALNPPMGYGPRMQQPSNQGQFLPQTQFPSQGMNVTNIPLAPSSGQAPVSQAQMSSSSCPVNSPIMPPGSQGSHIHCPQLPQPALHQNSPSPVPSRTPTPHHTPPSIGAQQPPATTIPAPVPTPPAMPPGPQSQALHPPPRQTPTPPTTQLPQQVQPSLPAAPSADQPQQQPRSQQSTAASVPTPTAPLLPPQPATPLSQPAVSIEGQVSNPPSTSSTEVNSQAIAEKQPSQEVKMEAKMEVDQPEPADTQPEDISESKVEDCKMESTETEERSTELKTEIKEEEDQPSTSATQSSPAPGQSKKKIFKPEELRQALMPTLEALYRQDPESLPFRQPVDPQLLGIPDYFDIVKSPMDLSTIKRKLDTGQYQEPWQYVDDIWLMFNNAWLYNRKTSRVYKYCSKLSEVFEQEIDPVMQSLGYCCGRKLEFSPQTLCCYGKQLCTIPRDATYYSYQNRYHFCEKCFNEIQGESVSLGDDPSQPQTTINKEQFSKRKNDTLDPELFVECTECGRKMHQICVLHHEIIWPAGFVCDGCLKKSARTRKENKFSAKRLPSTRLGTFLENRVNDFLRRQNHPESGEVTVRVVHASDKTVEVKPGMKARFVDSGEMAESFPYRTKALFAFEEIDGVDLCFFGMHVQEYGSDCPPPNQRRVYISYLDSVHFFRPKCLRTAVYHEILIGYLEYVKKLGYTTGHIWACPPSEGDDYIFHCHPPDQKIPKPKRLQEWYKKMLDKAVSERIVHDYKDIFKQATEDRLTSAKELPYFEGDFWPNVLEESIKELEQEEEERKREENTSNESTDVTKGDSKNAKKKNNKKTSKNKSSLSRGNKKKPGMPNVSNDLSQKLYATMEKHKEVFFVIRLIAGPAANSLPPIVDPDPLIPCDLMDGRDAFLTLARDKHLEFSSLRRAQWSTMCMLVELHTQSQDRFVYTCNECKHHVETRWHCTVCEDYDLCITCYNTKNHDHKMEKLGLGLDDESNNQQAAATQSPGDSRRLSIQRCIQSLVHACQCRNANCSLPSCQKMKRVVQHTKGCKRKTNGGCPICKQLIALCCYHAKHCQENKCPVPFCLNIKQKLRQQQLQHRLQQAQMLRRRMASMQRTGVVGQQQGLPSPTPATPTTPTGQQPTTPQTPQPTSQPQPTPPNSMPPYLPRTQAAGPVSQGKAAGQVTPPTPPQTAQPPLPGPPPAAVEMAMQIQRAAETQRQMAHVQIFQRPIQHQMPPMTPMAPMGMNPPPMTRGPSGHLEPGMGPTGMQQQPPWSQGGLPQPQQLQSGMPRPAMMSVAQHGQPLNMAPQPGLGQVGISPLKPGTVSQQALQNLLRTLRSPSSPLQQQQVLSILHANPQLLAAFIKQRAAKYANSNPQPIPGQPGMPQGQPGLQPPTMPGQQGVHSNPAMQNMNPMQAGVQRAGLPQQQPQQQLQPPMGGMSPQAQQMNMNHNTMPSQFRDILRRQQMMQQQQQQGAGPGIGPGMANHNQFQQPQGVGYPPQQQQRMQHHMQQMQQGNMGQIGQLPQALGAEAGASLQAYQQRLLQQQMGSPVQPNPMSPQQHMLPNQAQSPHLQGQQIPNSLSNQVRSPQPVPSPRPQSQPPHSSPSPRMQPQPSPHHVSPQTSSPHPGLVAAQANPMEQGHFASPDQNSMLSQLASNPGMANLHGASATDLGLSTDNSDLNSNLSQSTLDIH
UniProt P25490: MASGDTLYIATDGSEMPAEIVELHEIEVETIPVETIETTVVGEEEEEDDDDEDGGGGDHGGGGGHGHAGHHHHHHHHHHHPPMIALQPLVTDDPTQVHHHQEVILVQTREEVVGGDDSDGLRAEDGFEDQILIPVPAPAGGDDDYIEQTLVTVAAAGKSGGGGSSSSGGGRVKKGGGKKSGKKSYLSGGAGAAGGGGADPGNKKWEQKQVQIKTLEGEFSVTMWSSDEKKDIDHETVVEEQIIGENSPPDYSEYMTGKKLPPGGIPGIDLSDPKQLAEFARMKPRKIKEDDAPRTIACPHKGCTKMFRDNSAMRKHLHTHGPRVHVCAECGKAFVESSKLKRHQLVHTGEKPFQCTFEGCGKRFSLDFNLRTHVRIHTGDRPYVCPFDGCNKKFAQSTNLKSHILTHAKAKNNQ

Assay in all cases: co-IP
In experiment [1] the target is AR-V7, exogenously expressed (UniProt P10275).
Experiment [2] has as its target androgen receptor splice variant 7 (endogenous) (human (endogenous in 22Rv1)) (UniProt P10275).
In experiment [3] the target is p300 (endogenous p300 protein) (human (endogenous in 22Rv1)) (UniProt Q09472).

These are yes or no findings as the source states them, for the method shown. Binding seen in cells or lysates may run through a third protein. Some results given as binding are weak or reduced against the parent protein; the word gives no strength.

Take “HA-tagged YY1, WT (full-length) (from UniProt P25490 1-414)”: in experiment [1], the binding result was “binds”.

As to “Yin Yang 1 (endogenous) (from UniProt P25490 1-414)”, the binding entry in experiment [2] and in experiment [3] was “binds” in each case.
